PubChem BioAssay AID1259308 | NCATS – 2017
In all, the deposit lists about 59,000 reagents; shown is an unselected part. About 1,510 of them (2.6%) were called active. 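Calls use total luciferase alone and ignore viability, so some active siRNAs may act by altering cell number.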 The numbers tell different reagents against one gene apart. Not all columns of the deposit are shown. No sequences are given here.

- Aim: 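Candidate targets for better recombinant protein yield in mammalian cells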 (primary screen)
- Cells: human HEK293 embryonic kidney cells stably expressing firefly luciferase (HEK-CMV-Luc2-Hygro)
- Reagents: single siRNA against human genes, 0.8 pmol siRNA per well
- Time to read-out: 72 h
- Measured: 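Luciferase light (ONE-Glo) measured on one replicate plate set and viability (CellTiter-Glo) on the other, scaled to a negative control siRNA, with robust z-scores and luciferase per cell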
- Direction: total luciferase, z-score: higher = more reporter protein produced
- Call rule: 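An siRNA counts as active if its total luciferase robust z-score exceeds 3; genes with two or more such siRNAs out of three were retested with fresh siRNAs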
- Calls: active = raised luciferase; inactive = no rise

target	reagent no.	total luciferase, z-score	outcome
ATG16L1 (autophagy related 16 like 1)	1	0.514	inactive
ATG16L1 (autophagy related 16 like 1)	2	1.75	inactive
ATG16L1 (autophagy related 16 like 1)	3	-0.0311	inactive
UNC5D (unc-5 netrin receptor D)	1	-0.878	inactive
UNC5D (unc-5 netrin receptor D)	2	-0.343	inactive
UNC5D (unc-5 netrin receptor D)	3	0.311	inactive
FLRT3 (fibronectin leucine rich transmembrane protein 3)	1	1.02	inactive
FLRT3 (fibronectin leucine rich transmembrane protein 3)	2	0.592	inactive
FLRT3 (fibronectin leucine rich transmembrane protein 3)	3	0.125	inactive
PFDN1 (prefoldin subunit 1)	1	0.384	inactive
PFDN1 (prefoldin subunit 1)	2	-0.459	inactive
PFDN1 (prefoldin subunit 1)	3	-0.0927	inactive
SNCB (synuclein beta)	1	-0.0415	inactive
SNCB (synuclein beta)	2	-0.356	inactive
SNCB (synuclein beta)	3	-1.37	inactive

5 entries from above, reformatted.
FLRT3 (fibronectin leucine rich transmembrane protein 3) #2 — total luciferase, z-score: 0.592; outcome: inactive
FLRT3 (fibronectin leucine rich transmembrane protein 3) #3 — total luciferase, z-score: 0.125; outcome: inactive
PFDN1 (prefoldin subunit 1) #1 — total luciferase, z-score: 0.384; outcome: inactive
PFDN1 (prefoldin subunit 1) #2 — total luciferase, z-score: -0.459; outcome: inactive
PFDN1 (prefoldin subunit 1) #3 — total luciferase, z-score: -0.0927; outcome: inactive

Next reagents:
target	reagent no.	total luciferase, z-score	outcome
USP50 (ubiquitin specific peptidase 50)	1	-1.02	inactive
USP50 (ubiquitin specific peptidase 50)	2	-2.04	inactive
USP50 (ubiquitin specific peptidase 50)	3	0.187	inactive
HOXC13 (homeobox C13)	1	2.75	inactive
HOXC13 (homeobox C13)	2	-0.0756	inactive
HOXC13 (homeobox C13)	3	4.83	active
CGREF1 (cell growth regulator with EF-hand domain 1)	1	-0.851	inactive
CGREF1 (cell growth regulator with EF-hand domain 1)	2	-0.253	inactive
CGREF1 (cell growth regulator with EF-hand domain 1)	3	-0.505	inactive
GPBAR1 (G protein-coupled bile acid receptor 1)	1	0.276	inactive
GPBAR1 (G protein-coupled bile acid receptor 1)	2	1.34	inactive
GPBAR1 (G protein-coupled bile acid receptor 1)	3	2.91	inactive
STK11IP (serine/threonine kinase 11 interacting protein)	1	-1.35	inactive
STK11IP (serine/threonine kinase 11 interacting protein)	2	0.841	inactive
STK11IP (serine/threonine kinase 11 interacting protein)	3	-0.398	inactive
TLR5 (toll like receptor 5)	1	-0.14	inactive
TLR5 (toll like receptor 5)	2	-1.56	inactive
TLR5 (toll like receptor 5)	3	-0.589	inactive
PLEKHG2 (pleckstrin homology and RhoGEF domain containing G2)	1	1.35	inactive
PLEKHG2 (pleckstrin homology and RhoGEF domain containing G2)	2	-0.301	inactive
PLEKHG2 (pleckstrin homology and RhoGEF domain containing G2)	3	4.73	active
OR2V2 (olfactory receptor family 2 subfamily V member 2)	1	-0.478	inactive
OR2V2 (olfactory receptor family 2 subfamily V member 2)	2	1.5	inactive
OR2V2 (olfactory receptor family 2 subfamily V member 2)	3	-3.14	inactive
